From patent publication US20120178699A1
These are yes or no findings as the source states them, for the method shown. Binding seen in cells or lysates may run through a third protein. Some entries that bind do so weakly or less than the wild type. Tags and fused reporters may be left off the sequences shown.

Protein sequences, listed by entry. Tags and fused reporters are not part of them. Residues count along the entry.
UniProt P08069, residues 31-1367: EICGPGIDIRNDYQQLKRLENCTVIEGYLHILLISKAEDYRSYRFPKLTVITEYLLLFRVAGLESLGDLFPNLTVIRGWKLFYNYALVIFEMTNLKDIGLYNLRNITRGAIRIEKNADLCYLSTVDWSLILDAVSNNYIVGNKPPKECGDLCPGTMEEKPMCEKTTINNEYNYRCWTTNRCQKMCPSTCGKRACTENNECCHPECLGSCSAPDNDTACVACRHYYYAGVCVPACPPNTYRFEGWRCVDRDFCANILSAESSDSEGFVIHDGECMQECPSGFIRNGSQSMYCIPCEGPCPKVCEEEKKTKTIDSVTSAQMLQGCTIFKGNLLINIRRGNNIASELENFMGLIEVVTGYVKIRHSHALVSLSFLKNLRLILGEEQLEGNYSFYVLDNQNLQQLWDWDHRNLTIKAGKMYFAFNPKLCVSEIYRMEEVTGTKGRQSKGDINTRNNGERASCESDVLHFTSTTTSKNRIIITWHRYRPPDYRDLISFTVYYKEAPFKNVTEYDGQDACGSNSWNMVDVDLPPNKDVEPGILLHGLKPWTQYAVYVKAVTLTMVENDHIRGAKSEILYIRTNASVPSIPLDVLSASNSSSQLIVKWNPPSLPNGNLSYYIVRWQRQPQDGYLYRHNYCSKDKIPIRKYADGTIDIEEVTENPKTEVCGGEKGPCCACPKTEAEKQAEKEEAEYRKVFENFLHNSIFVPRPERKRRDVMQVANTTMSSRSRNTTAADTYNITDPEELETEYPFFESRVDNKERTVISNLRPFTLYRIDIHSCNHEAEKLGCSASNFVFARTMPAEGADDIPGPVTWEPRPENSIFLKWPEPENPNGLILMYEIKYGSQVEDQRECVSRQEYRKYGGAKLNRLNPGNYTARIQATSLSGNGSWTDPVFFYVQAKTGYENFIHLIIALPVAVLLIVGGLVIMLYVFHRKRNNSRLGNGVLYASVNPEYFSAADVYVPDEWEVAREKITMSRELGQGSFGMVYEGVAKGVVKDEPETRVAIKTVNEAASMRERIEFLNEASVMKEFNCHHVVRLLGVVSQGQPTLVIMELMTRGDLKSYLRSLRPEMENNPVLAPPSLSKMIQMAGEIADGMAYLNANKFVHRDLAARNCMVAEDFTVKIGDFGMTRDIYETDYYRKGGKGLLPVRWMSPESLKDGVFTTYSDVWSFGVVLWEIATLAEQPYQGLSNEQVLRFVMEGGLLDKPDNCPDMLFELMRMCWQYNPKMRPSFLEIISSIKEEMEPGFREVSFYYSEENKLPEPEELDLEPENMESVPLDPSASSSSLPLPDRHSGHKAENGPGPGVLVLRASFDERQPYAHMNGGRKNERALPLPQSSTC

Key:
IGF-1 receptor [1] = molecular target: IGF-1 receptor (UniProt P08069); experiment: reciprocal co-immunoprecipitation and Western blot, MCF-7 cells stably or transiently expressing HA-klotho
IGF-1 receptor [2] = molecular target: IGF-1 receptor (UniProt P08069); experiment: co-immunoprecipitation (discussion of the result)
IGF-1 receptor [3] = molecular target: IGF-1 receptor (UniProt P08069); experiment: co-immunoprecipitation from breast cancer cell lysates

binding (IGF-1 receptor [1]): binds | binding (IGF-1 receptor [2]): binds | binding (IGF-1 receptor [3]): binds
B1: HA-klotho protein (protein, not shown: small tags and cut ends)
chain: AEPGQGAQTWARFARAPAPEAAGLLHDTFPDGFLWAVGSAAYQTEGGWRQHGKGASIWDTFTHHSGAAPSDSPIVVAPSGAPSPPLSSTGDVASDSYNNVYRDTEGLRELGVTHYRFSISWARVLPNGTAGTPNREGLRYYRRLLERLRELGVQPVVTLYHWDLPQRLQDTYGGWANRALADHFRDYAELCFRHFGGQVKYWITIDNPYVVAWHGYATGRLAPGVRGSSRLGYLVAHNLLLAHAKVWHLYNTSFRPTQGGRVSIALSSHWINPRRMTDYNIRECQKSLDFVLGWFAKPIFIDGDYPESMKNNLSSLLPDFTESEKRLIRGTADFFALSFGPTLSFQLLDPNMKFRQLESPNLRQLLSWIDLEYNHPPIFIVENGWFVSGTTKRDDAKYMYYLKKFIMETLKAIRLDGVDVIGYTAWSLMDGFEWHRGYSIRRGLFYVDFLSQDKELLPKSSALFYQKLIEDNGFPPLPENQPLEGTFPCDFAWGVVDNYVQVDTTLSQFTDPNVYLWDVHHSKRLIKVDGVVAKKRKPYCVDFSAIRPQITLLREMRVTHFRFSLDWALILPLGNQTQVNHTVLHFYRCMISELVHANITPVVALWQPAAPHQGLPHALAKHGAWENPHTALAFADYANLCFKELGHWVNLWITMNEPNTRNMTYRAGHHLLRAHALAWHLYDDKFRAAQKGKISIALQADWIEPACPFSQNDKEVAERVLEFDIGWLAEPIFGSGDYPRVMRDWLNQKNNFLLPYFTEDEKKLVRGSFDFLAVSHYTTILVDWEKEDPMKYNDYLEVQEMTDITWLNSPSQVAVVPWGLRKVLNWLRFKYGDLPMYVTANGIDDDPHAEQDSLRIYYIKNYVNEALKAYVLDDINLCGYFAYSLSDRSAPKSGFYRYAANQFEPKPSMKHYRRIIDSNGFLGSGTLGRFCPEEYTVCTECGFFQTRKSLLVFISFLVFTFIISLALIFHYSKKGQRSYK
